Results from patent US8304388B2 (GE Healthcare Limited, priority 2006, dated 2012).

Assay: general procedure: Fmoc solid-phase peptide synthesis; Nova Biochem Rink MBHA resin (0.58 mmole/g or 0.72 mmole/g); HBTU-HOBt-DIEA
Details: for final HPLC purity: LC-MS; for crude mass: scale 0.05 mmol
[1] = whole synthesis, scale of the general procedure 0.1 mmole or 0.25 mmole
[2] = whole synthesis, scale 0.03 mmole
[3] = whole synthesis, scale 0.05 mmole

For Chelate I-ANAALKAGELYK-[Abu]-ILY, the “final HPLC purity” value (late stage modification step) was 98%.

With α-His-[Ac]-ANAALKAGELYK-[Abu]-ILY the “final HPLC purity” value [1] was 98% and the isolated mass [2] was 2 mg.

With Chelate II-MIVVELTNPLKSSGIENGAFQGMKK the “final HPLC purity” value [1] was 98% and the isolated mass [2] was 1 mg.

With [Chelate II]-ANAALKAGELYKCILY-NH2 the “final HPLC purity” value [1] was 98%, the isolated mass [3] was 5.8 mg and the difficulty met [1] was “a large proportion of a deletion peptide (probably -Leu) was observed”.

For [Chelate II]-KELNLVYT, the “final HPLC purity” value [1] was 99% and the isolated mass [3] was 8.7 mg.

With HYNIC-ANAALKAGELYK-[Abu]-ILY the “final HPLC purity” value [1] was 98% and the isolated mass (whole synthesis, scale 0.01 mmole) was 1 mg.

“Chelate 1-Glut-Ala-Asn-Ala-Ala-Leu-Lys(ivDde)-Ala-Gly-Glu-Leu-Tyr-Lys(ivDde)-Abu-Ile-Leu-Tyr-PEG(4)-diglycoloyl-NH2” gave a crude mass (whole synthesis) of 95 mg.

With “Chelate 1-Glut-Ala-Asn-Ala-Ala-Leu-Lys(ivDde)-Ala-Gly-Glu-Leu-Tyr-N-Me-Lys(ivDde)-Abu-Ile-Leu-Tyr-PEG(4)-diglycoloyl-NH2” the crude mass (whole synthesis) was 77 mg.
